Measurements published in US20180117029A1, “Targeting Metabolic Vulnerability in Triple-Negative Breast Cancer” (Beth Israel Deaconess Medical Center, Inc., priority 2016, published 2018).
For at least one compound, name, drawing or mass did not settle the structure.

Key:
Assay type in all cases: cell-based
[1] = tested on: p-H2A.X (Ser139) in SUM-159PT cells; experiment: H2A.X phosphorylation (DNA damage) by immunoblotting and immunofluorescence; conditions: 20 μM A771726 pre-treatment 12 hours, then doxorubicin 10 hours
Description: Immunoblotting: Cells were washed with ice-cold PBS and lysed in radioimmunoprecipitation buffer (RIPA; 1% NP-40, 0.5% sodium deoxycholate, 0.1% SDS, 150 mmol/L NaCl, 50 mmol/L Tris-HCl, pH 7.5, protease inhibitor cocktail, 50 nmol/L calyculin A, 1 mmol/L sodium pyrophosphate, and 20 mmol/L sodium fluoride). Cell extracts were cleared by centrifugation and protein concentration was measured with the Bio-Rad DC protein assay. Lysates were then resolved on acrylamide gels by SDS-PAGE and transferred electrophoretically to nitrocellulose membrane (Bio-Rad). Blots were blocked in Tris-buffered saline (TBST) buffer (10 mmol/L Tris-HCl, pH 8, 150 mmol/L NaCl and 0.2% Tween 20) containing 5% (w/v) nonfat dry milk and then incubated with primary antibody overnight. Membranes were incubated with HRP-conjugated secondary antibody and developed using enhanced chemiluminescence substrate (EMD Millipore).
Immunofluorescence: Cells plated on coverslips were fixed with 2% paraformaldehyde for 10 minutes, permeabilized with 0.5% Triton X-100, and blocked with 1% BSA in 20 mmol/L Tris-HCl, pH 7.5, for 20 minutes. Coverslips were then incubated with Alexa Fluor® 647—conjugated anti-phospho H2A.X 5139 antibody (1:100) for 3 hours. […] Images of cells were acquired using a fluorescence microscope (Nikon Eclipse Ti) and digital image analysis software (NIS-Elements, Nikon).

SUM-159PT cells [2] = experiment: Fluorescence-based deoxyribonucleoside triphosphate assay in SUM-159PT cells; conditions: 20 μM A771726 pre-treatment 12 hours, then doxorubicin ten hours
Description: Deoxyribonucleoside triphosphate assay: Cells were maintained in full growth medium, and fresh medium was added at the time cells were treated with doxorubicin. In some cases, SUM-159PT cells were switched to Ham's F12 medium lacking glutamine. For metabolite extraction, medium was aspirated and ice-cold 60% (v/v) methanol was added. The insoluble material in lysates was pelleted by centrifugation at 10,000 g for 10 min. The resulting metabolite-containing supernatants were evaporated using a refridgerated SpeedVac. Samples were re-suspended in water and deoxyribonucleside triphosphate levels were measured as previously described (12).

SUM-159PT cells [3] = experiment: Propidium iodide viability assay in SUM-159PT cells
Description: Propidium iodide viability assay: Cell viability was assayed with a prodium iodide-based plate reader assay, as previously described (25). Briefly, cells in 96-well plates were treated with a final concentration of 30 μM propidium iodide for 60 minutes at 37° C. The initial fluorescence intensity was measured before digitonin was added to each well at a final concentration of 600 μM. After incubating for 30 minutes at 37° C., the final fluorescence intensity was measured. The fraction of dead cells was calculated by dividing the background-corrected initial fluorescence intensity by the final fluorescence intensity.

SUM-159PT cells [4] = experiment: Mitochondrial respiration (oxygen consumption rate, Seahorse analyzer); conditions: 0.5 μM doxorubicin or 20 μM A771726, 4 hours, 50,000 SUM-159PT cells
Description: Mitochondrial respiration: Mitochondrial respiration was assessed using the Seahorse XFe-96 Analyzer (Seahorse Bioscience). SUM-159PT cells (50,000 cells per well) were treated with vehicle control, 0.5 μM Doxorubicin, 20 μM A771726, or the combination (A771726 & Doxorubicin) for 4 hours in normal media conditions. Following this incubation, media was changed to a non-buffered, serum-free Seahorse Media (Seahorse Bioscience, Catalog #102353) supplemented with 5 mM glucose, 2 mM L-glutamine, and 1 mM sodium pyruvate, and the oxygen consumption rate (OCR) was measured. In addition, OCR was measured for 30 minutes upon drug treatment and cells were subsequently challenged with either 1 μM Oligomycin or 0.5 μM Antimycin A to assess their effect on mitochondrial respiration. All experiments were normalized to cell number.

[5] = tested on: TNBC cell lines (MDA-MB-231, MDA-MB-468, HCC1143, SUM-149PT, CAL-51); experiment: Propidium iodide viability assay in additional TNBC cell lines; conditions: 20 μM A771726 pre-treatment 16 hours, then doxorubicin 48 hours

Structure (SMILES): C/C(O)=C(\C#N)C(=O)Nc1ccc(C(F)(F)F)cc1 [A771726, teriflunomide]
- phosphorylation of H2A.X following doxorubicin treatment [1]: exacerbated
- effect on increase in dCTP and dTTP levels induced by doxorubicin (SUM-159PT cells [2]): effectively blocked
- combination with cisplatin (percentage of dead cells) (SUM-159PT cells [3]; 20 μM A771726 pre-treatment 12 hours, then cisplatin 12.5 μM 48 hours): synergy
- combination with etoposide (percentage of dead cells) (SUM-159PT cells [3]; 20 μM A771726 pre-treatment 12 hours, then etoposide 40 μM 48 hours): synergy
- sensitization to paclitaxel (percentage of dead cells) (SUM-159PT cells [3]; 20 μM A771726 pre-treatment 12 hours, then paclitaxel 0.5 μM 48 hours): did not sensitize
- combination with topotecan (percentage of dead cells) (SUM-159PT cells [3]; 20 μM A771726 pre-treatment 12 hours, then topotecan 0.625 μM 48 hours): synergy
- single-agent activity (percentage of dead cells) (SUM-159PT cells [3]; 80 μM PALA, 0.3 μM brequinar or 20 μM A771726, without doxorubicin): minimal single-agent activity
- sensitization of SUM-159PT cells to doxorubicin (percentage of dead cells) (SUM-159PT cells [3]; 80 μM PALA, 0.3 μM brequinar or 20 μM A771726 pre-treatment 12 hours, then doxorubicin 48 hours): dramatically sensitized
- oxygen consumption rate (OCR) (SUM-159PT cells [4]): significant decrease
- sensitization of additional TNBC cell lines to doxorubicin (percentage of dead cells) [5]: effectively sensitized
